Reference: PubChem BioAssay AID1671190 (National Center for Advancing Translational Sciences (NCATS), 2021)
“And” between values parts separate entries of the source, which are not always exact repeats. Equal values may be shown once. Hit rate of the full screen: of about 580,000 compounds, about 6,100 (1.1%) were called active. This list was built around the results that the source calls inconclusive (neither active nor inactive); the mix of calls is not that of the screen. The call rests on the fitted dose curve; in most records, active means well fitted inhibition curve with a large enough effect; inconclusive means small, poorly fitted or top-dose-only effect, or another doubt; inactive means no such curve, though single readings can be large or run the other way. A potency beside an inconclusive call is a rough fit, not a confirmed value. More than one record can exist for a structure, and the calls need not agree.

Amino acid sequences for entries named in this document (tags omitted). A change or cut given only in a name is not applied to a line headed by its entry.
UniProt P18054: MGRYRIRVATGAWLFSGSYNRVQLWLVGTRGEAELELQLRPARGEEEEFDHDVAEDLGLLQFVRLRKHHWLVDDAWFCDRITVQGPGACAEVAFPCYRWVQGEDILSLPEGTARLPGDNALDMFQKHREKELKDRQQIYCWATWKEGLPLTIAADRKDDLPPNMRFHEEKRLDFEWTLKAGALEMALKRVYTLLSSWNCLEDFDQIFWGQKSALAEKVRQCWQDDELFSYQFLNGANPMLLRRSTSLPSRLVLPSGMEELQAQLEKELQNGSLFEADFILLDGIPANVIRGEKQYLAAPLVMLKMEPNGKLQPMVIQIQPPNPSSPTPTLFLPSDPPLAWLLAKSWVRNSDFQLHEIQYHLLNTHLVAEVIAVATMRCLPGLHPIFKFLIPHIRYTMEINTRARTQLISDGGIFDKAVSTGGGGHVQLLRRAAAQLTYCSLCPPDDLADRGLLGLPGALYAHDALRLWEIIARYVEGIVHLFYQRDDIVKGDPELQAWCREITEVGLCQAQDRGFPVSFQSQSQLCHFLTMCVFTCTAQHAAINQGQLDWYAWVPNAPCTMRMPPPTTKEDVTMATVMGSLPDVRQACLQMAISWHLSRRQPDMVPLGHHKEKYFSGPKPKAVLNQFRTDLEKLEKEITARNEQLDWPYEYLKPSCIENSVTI

The compounds below were run against Polyunsaturated fatty acid lipoxygenase ALOX12 (Homo sapiens) (UniProt P18054) (assay: Primary qHTS assay for inhibitors of human arachidonate 12S-lipoxygenase (ALOX12): Round 2). Settings: purified 12hLO, xylenol orange hydroperoxide absorbance; activity change, negative = inhibition: at 108 µM (top of the series) unless noted.
Method in brief: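 Purified human 12hLO at 150 nM in 25 mM Hepes, 0.01% Triton X-100, pH 7.0, preincubated 15 min at room temperature with compound. Reaction started with 40 uM arachidonic acid, 30 min at room temperature. Hydroperoxide measured by Fe-xylenol orange, 573/405 nm absorbance ratio.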
On the % scale 0 is the no-effect control and ±100 the full control effect; potency means the concentration at half of the fitted maximal effect.

| Compound | Potency | activity change, negative = inhibition |
| --- | --- | --- |
| Cc1cc(C)c(NS(=O)(=O)c2ccc(N3C(=O)CCS3(=O)=O)cc2)c(Cl)c1 | inactive | – |
| CC(=O)c1ccc(OCC(=O)c2ccc3c(c2)OCO3)cc1 | inconclusive: 141 µM [inhibitor, partial curve, poor fit] | – |
| CCOC(=O)/C(N=O)=C(\O)C1CCN(C(=O)OCC)CC1 | inconclusive: 8.91 µM [inhibitor, partial curve, poor fit] | – |
| CCOC(=O)c1ccc(N2C(=O)c3n[nH]c(-c4ccco4)c3C2c2ccc(O)cc2)cc1 (centres undefined) | inconclusive: 56.2 µM [inhibitor, partial curve, poor fit] | – |
| O=C(NCCCl)Nc1cccc(Br)c1 | inconclusive: 25.1 µM [inhibitor, partial curve, poor fit] | – |
| CN(C)CCNC(=O)COc1cccc(Cl)c1 | inconclusive: 35.5 µM [inhibitor, single point] | – |
| O=C(c1ccnc(-n2cnnn2)c1)N1CCOc2ccc(C(O)CCc3ccccc3)cc2C1 (centres undefined) | inconclusive: 112 µM [inhibitor, single point] | – |
| Cc1ccc(N(Cc2cccs2)C(=O)c2cccc(C)c2)cc1 | inactive | – |
| O=C(Nc1nc2n(n1)C(c1ccccc1)CC(c1ccc(Cl)cc1)N2)c1ccco1 (centres undefined) | inconclusive: 35.5 µM [inhibitor, single point] | – |
| O=c1[nH]c(=S)[nH]c2nccnc12 | inconclusive: 3.16 µM [inhibitor, full curve] | – |
| CCN(CC)S(=O)(=O)c1ccc(NC(=O)c2ccccn2)cc1 | inconclusive: 7.08 µM [inhibitor, full curve, poor fit] | – |
| Cc1ccc(S(=O)(=O)CC(=O)Nc2sc3c(c2C#N)CCCC3)cc1 | inconclusive: 56.2 µM [inhibitor, partial curve, poor fit] | – |
| C#CCOCCOCCOCCNc1nc(N2CCN(C(=O)[C@H]([C@@H](C)CC)n3cc(CCCCN)nn3)CC2)nc(N2CCN(C(=O)[C@H](CCCCN)n3cc(CCC(=O)O)nn3)CC2)n1 | inconclusive: 79.4 µM [inhibitor, partial curve, poor fit] | – |
| Cc1ccc(CSCC(=O)N2CCN(c3ccccc3F)CC2)cc1 | inconclusive: 56.2 µM [inhibitor, partial curve, poor fit] | – |
| Cc1ccc(-c2ccc(/C=C/C(=O)c3ccco3)o2)cc1 | inconclusive: 35.5 µM [inhibitor, partial curve, poor fit] | – |
| Cc1cc(C2CCCCC2)n(O)c(=O)c1 | active: 39.8 µM and inconclusive: 10 µM [inhibitor, partial curve, poor fit] | – |
| Cc1ccc(C)c(C(=O)COC(=O)c2n[nH]c3ccccc23)c1 | inconclusive: 56.2 µM [inhibitor, partial curve, poor fit] | – |
| O=C(NC1CC1)c1cccc(Oc2ccccc2)c1 | inconclusive: 0.199 µM [inhibitor, full curve, poor fit] | – |
| Cc1ccc(S(=O)(=O)c2c(C)c(C)n(Cc3ccco3)c2N)cc1 | active: 44.7 µM | – |
| O=C1C=CC=C/C1=C\N(O)c1ccccc1 | inconclusive: 3.98 µM [inhibitor, full curve, poor fit] | – |
| COc1cc(/C=N/Nc2cccc(C)c2)ccc1OC(=O)c1ccco1 | inconclusive: 50.1 µM [inhibitor, partial curve, poor fit] | – |
| Oc1ccccc1N=Cc1sc2ccccc2c1Cl | inactive | – |
| COC(=O)[C@@]1(Sc2ccc(C)cc2)CC(=O)N(C(=O)CCc2ccccc2)[C@@H]1c1ccccc1 | inconclusive: 8.91 µM [inhibitor, full curve, poor fit] | – |

2 compounds drawn at random from those above:

| Compound | Potency | activity change, negative = inhibition |
| --- | --- | --- |
| Cc1ccc(CSCC(=O)N2CCN(c3ccccc3F)CC2)cc1 | inconclusive: 56.2 µM [inhibitor, partial curve, poor fit] | – |
| O=c1[nH]c(=S)[nH]c2nccnc12 | inconclusive: 3.16 µM [inhibitor, full curve] | – |

(cont.)

| Compound | Potency | activity change, negative = inhibition |
| --- | --- | --- |
| CCCNC(=O)c1cc2c(c(-c3cccc(-c4ccc(F)cc4)c3)n1)[C@H](CCO)N(S(=O)C(C)(C)C)C2 (some centres undefined) | inconclusive: 79.4 µM [inhibitor, single point] | – |
| Cc1c(Cl)cccc1NC(=O)c1noc2c1CCCCC2 | inactive | – |
| Cc1ccccc1C(=O)N1CCC2(CC1)OCCN2S(=O)(=O)c1ccc(Cl)cc1 | inconclusive: 28.2 µM [inhibitor, full curve, poor fit] | – |
| CCNC(C(=O)c1c[nH]c2c(CC)cccc12)c1ccccc1 (centres undefined) | inactive | – |
| Cc1cc(NC(=O)C2CC2)sc1C(=O)NCc1ccc(Cl)cc1Cl | inconclusive: 44.7 µM [inhibitor, partial curve, poor fit] | – |
| CC[C@H]1CN(C(=O)c2ccnc(Cl)c2)CC[C@H]1CC(=O)NCc1ccc(OC)cc1 | inactive | – |
| CCc1cc(C(=O)O)c2c(c1)C(C)CC(C)(C)N2 (centres undefined) | inactive | – |
| Oc1ccc(/C=N/Nc2ccc(C(F)(F)F)cn2)cc1 | inconclusive: 89.1 µM [inhibitor, single point] | – |
| CCCCC(=O)N1C(C)CCC1C (centres undefined) | inactive | – |
| COc1ccccc1-c1nc2c(c(SCC(=O)Nc3ccc(C)c(C)c3)n1)Cc1c(CO)cnc(C)c1O2 | inconclusive: 89.1 µM [inhibitor, partial curve, poor fit] | – |
| Cc1ccccc1NC(=O)Cn1c(=O)oc2cc(Br)ccc21 | inconclusive: 100 µM [inhibitor, partial curve, poor fit] | – |
| O=c1c(-c2ccc(F)cc2)nc2cnc(N3CCOCC3)nc2n1CCc1ccccc1 | inconclusive: 25.1 µM [inhibitor, partial curve, poor fit] | – |
| Cc1cccnc1C(NC(=O)C1CCN(CCCc2ccccc2)CC1)c1ccc(Cl)cc1 (centres undefined) | inconclusive: 44.7 µM [inhibitor, partial curve, poor fit] | – |
| Cc1ccc(C(=O)Nc2sccc2C#N)s1 | active: 50.1 µM | – |
| N=c1c2c(-c3ccccc3)c(-c3ccccc3)n(Cc3ccco3)c2ncn1CCCn1ccnc1 | inactive | – |
| COc1ccc(C2=C(C)C(=NCCCN3CCN(c4cc(C)ccc4C)CC3)NS2(=O)=O)cc1 | inconclusive: 10 µM [inhibitor, full curve, poor fit] | – |
| CN(C)C(CNC(=O)c1ccc(C2SCCS2)cc1)c1ccccc1 (centres undefined) | inactive | – |
| Cc1ccc(NC(=O)N2Cc3ccccc3CC2C(=O)NC(C)(C)C)cc1 (centres undefined) | inconclusive: 3.16 µM [inhibitor, full curve, poor fit] | – |
| Cc1cccc(N2CCN(C(=O)c3ccccc3SCC(=O)N3CCCC3)CC2)c1C | inactive | – |
| COc1ccc(Nc2nc(C(=O)OCC(=O)c3ccc(F)cc3)cs2)cc1 | inactive | – |
| CC(O)CNS(=O)(=O)c1ccc(Oc2ccc(S(=O)(=O)NCC(C)O)cc2)cc1 (centres undefined) | inactive | – |
| CCOCc1ccc(CNC(=O)c2nccnc2N)cc1 | inconclusive: 4.47 µM [inhibitor, full curve, poor fit] | – |
| COc1ccc(NC(=O)COC(=O)c2cc(=O)c3ccccc3o2)c(OC)c1 | inconclusive: 0.447 µM [inhibitor, full curve, poor fit] | – |

Full records, looked up by structure.
Cc1ccccc1NC(=O)Cn1c(=O)oc2cc(Br)ccc21 reads Potency: inconclusive: 100 µM [inhibitor, partial curve, poor fit]
Cc1cccnc1C(NC(=O)C1CCN(CCCc2ccccc2)CC1)c1ccc(Cl)cc1 (centres undefined) reads Potency: inconclusive: 44.7 µM [inhibitor, partial curve, poor fit]
COc1ccc(NC(=O)COC(=O)c2cc(=O)c3ccccc3o2)c(OC)c1 reads Potency: inconclusive: 0.447 µM [inhibitor, full curve, poor fit]

(more compounds)

| Compound | Potency | activity change, negative = inhibition |
| --- | --- | --- |
| CCCn1nnnc1NC(=O)c1cccs1 | inactive | – |
| CC[C@]12c3[nH]c4cc(-c5ccco5)ccc4c3CCN1C(=O)[C@@H](CC(=O)NCCCN(C)C)C[C@@H]2C(=O)N1CCN(C(=O)c2ccco2)CC1 | inconclusive: 126 µM [inhibitor, single point] | – |
| Clc1cccc(Cc2c(-c3cccc(Cl)c3)nc3c4ccccc4ccn23)c1 | inactive | – |
| COCc1ccc(C(=O)N(C)CC2CCCN(CCc3ccc(OC)cc3)C2)o1 (centres undefined) | inactive | – |
| O=C(c1ccc(Cl)cc1)N1CCC(c2n[nH]c(=O)n2-c2ccccc2)CC1 | inactive | – |
| CC(Sc1ccc(F)c(Cl)c1)C(=O)NC(C)(C)C (centres undefined) | inconclusive: 89.1 µM [inhibitor, single point] | – |
| CCOC(=O)c1cocc1C(=O)O | inconclusive: 89.1 µM [inhibitor, partial curve, poor fit] | – |
| Cc1cccc(Nc2nc(N)nc(CSc3nccc(C)n3)n2)c1 | inactive | – |
| CC(=O)Nc1ccc2nc(-c3cccn3C)[nH]c2c1 | inactive | – |
| Cc1ccc(C)c(NC(=O)Cn2cc(C(=O)c3ccco3)c3ccccc32)c1 | inconclusive: 100 µM [inhibitor, single point] | – |
| CCn1c(NC(=S)Nc2ccccc2)nc2ccccc21 | inconclusive: 8.91 µM [inhibitor, full curve, poor fit] | – |
| CC(C)NC(=O)C1=CC(c2ccco2)=NS(=O)(=O)N1C | – | inconclusive: -32.2% [inhibitor] |
| CN(Cc1cccnc1)C(=O)CNC(=O)COc1ccccc1 | inactive | – |
| CCOc1ccccc1NC(=S)NNS(=O)(=O)c1c(C)cc(C)cc1C | inconclusive: 39.8 µM [inhibitor, partial curve] | – |
| COc1cccc2cc(C(=O)N3c4ccccc4CC3C)c(=O)oc12 (centres undefined) | inactive | – |
| COCCCNC(=O)c1ccccc1N(Cc1ccccc1)S(=O)(=O)c1ccccc1 | inconclusive: 39.8 µM [inhibitor, partial curve] | – |
| Cc1cccc(N2CCN(C(=O)COc3ccc4c(C)cc(=O)oc4c3C)CC2)c1C | – | inconclusive: -30.3% [inhibitor] |
| Brc1ccc2c(c1)OCCOCCOCCOCCOCCOCCO2 | inconclusive: 141 µM [inhibitor, partial curve, poor fit] | – |
| CC(C)C(=O)c1cn(CC(=O)NCc2ccc3c(c2)OCO3)c2ccccc12 | inactive | – |
| Cc1sc2nc(CSCC(=O)Nc3c(F)cccc3F)[nH]c(=O)c2c1C | inactive | – |
| Cc1ccc(-c2nc(N/N=C/c3ccccc3[N+](=O)[O-])c3ccccc3n2)cc1 | inconclusive: 112 µM [inhibitor, partial curve, poor fit] | – |
| CCc1ccc(-c2cc(C(=O)Nc3nccs3)c3ccccc3n2)cc1 | inactive | – |
| CC(=O)Nc1ccc(N2C(=O)CSC2c2cccc(Br)c2)cc1 (centres undefined) | inconclusive: 35.5 µM [inhibitor, partial curve] | – |
